Experimental data from patent publication US20250250310A1, “COMBINATION THERAPY WITH ADP-RIBOSE BINDING PEPTIDE AND ADP-RIBOSE FOR PREVENTION OR TREATMENT OF CANCER” (PEARLSINMIRES CO., LTD., priority 2023, published 2025).
At least one structure is not confirmed: it was looked up by name or label, or the drawing left a doubt. Where a SMILES comes first, the peptide text is derived from it. [ ]: non-standard residue; d: D form. The star is where a group is joined. Stearoyl = CCCCCCCCCCCCCCCCCC(=O)*; AEEA = NCCOCCOCC(=O)O

Key:
MDA-MB-231 cancer cells = assay: MDA-MB-231 cell viability (MTT), sustained release derivative alone or in combination; assay type: cell-based; conditions: single treatment (derivative 5 μM, ADPR 2 mM, NAD^+ 2 mM, anti-cancer drugs), 96 hours
Experimental: Each of 2.5×10^3 human-derived pancreatic cancer (Aspc-1), kidney cancer (Caki-1), breast cancer (HCC1937), liver cancer (HepG2), lung cancer (H1975), colon cancer (HCT116), ovarian cancer (OVCAR-3), brain cancer (U87) cells were cultured in a 96-well plate under 37° C. and 5% CO2 conditions for 24 hours, and then treated with the sustained release derivative alone. […]
(§1) The cells were then cultured for another 96 hours at 37° C. and 5% CO2, and 10 μl of 3-(4,5-dimethylthiazol-2-yl)-2,5-diphenyltetrazolium bromide reagent was added to each well and reacted for 1 hour. The reagent was removed at the end of the reaction, 200 μl of dimethyl sulfoxide was then added to each well, and the absorbance was measured to determine the cell viability.

normal MRC5 cells = assay: Normal cytotoxicity of sustained release derivative alone or in combination (MTT); assay type: cell-based, human; conditions: sustained-release derivative in combination with ADPR, 96 hours
Experimental: In a 96-well plate, 2.5×10^3 human-derived normal MRC5 cells were cultured for 24 hours under 37° C. and 5% CO2 conditions, and then treated with the sustained-release derivative and ADPR alone or in combination.
as §1, with “hour. The MTT reagent was” for “hour. The reagent was”

Which cell viability (MDA-MB-231 cancer cells) does the source give for CCCCCCCCCCCCCCCCCC(=O)NCCCC[C@H](NC(=O)[C@H](CCCNC(=N)N)NC(=O)[C@H](CCCNC(=N)N)NC(=O)[C@H](CCCNC(=N)N)NC(=O)CNC(=O)[C@H](Cc1c[nH]cn1)NC(=O)[C@H](CCC(=O)O)NC(=O)[C@H](CC(N)=O)NC(=O)[C@H](CCCNC(=N)N)NC(=O)[C@H](CCCNC(=N)N)NC(=O)[C@H](Cc1ccc(O)cc1)NC(=O)[C@H](CCC(N)=O)NC(=O)[C@@H](NC(=O)[C@H](CCSC)NC(=O)[C@H](CC(N)=O)NC(=O)[C@H](CCC(=O)O)NC(=O)[C@H](CC(C)C)NC(=O)[C@H](CC(=O)O)NC(=O)[C@H](C)NC(=O)[C@@H](NC(=O)[C@H](Cc1ccc(O)cc1)NC(=O)[C@H](CC(C)C)NC(=O)[C@H](Cc1ccccc1)NC(=O)[C@H](CCC(N)=O)NC(=O)[C@@H]1CCCN1C(=O)[C@H](CCCNC(=N)N)NC(=O)[C@H](CCCNC(=N)N)NC(=O)[C@H](CCCNC(=N)N)NC(=O)[C@H](CCC(N)=O)NC(=O)[C@H](CCCNC(=N)N)NC(=O)[C@H](CCCNC(=N)N)NC(=O)[C@H](CCCCN)NC(=O)[C@H](CCCCN)NC(=O)[C@H](CCCNC(=N)N)NC(=O)CNC(=O)COCCOCCN)C(C)C)C(C)C)C(=O)N[C@H](C(=O)N[C@@H](CCCCN)C(=O)N[C@@H](CCCNC(=N)N)C(N)=O)[C@@H](C)CC [sustained-release derivative] (H-[AEEA]GRKKRRQRRRPQFLYVADLENMVQYRRNEHGRRRK(Stearoyl)IKR-NH2; C-terminus assumed) here?
The cell viability was 80%.

What about the “viability of normal cells compared to the untreated group” value (normal MRC5 cells) of the same compound?
The value was ≥ 90%.
